End groups of sequences in plain letters are not given here.
Experiment: general procedure: Boc solid-phase peptide synthesis; Glycyl PAM resin (0.76 meq/g); HCTU
Details: oxidative folding step, on reduced TICA1 (18 mg, 5.49 μmole), several disulfide bridges, sequence written open

In the case of RVCPRILMKCKKDSDCLAECVCLEHGYCG, the oxidative folding yield is reported as 56%.

Source: patent US20140296146A1 (Synapse B.V., priority 2011, published 2014)
